This is one part of the list. Only hits are listed; about a third recur on repeated control peptides.
Assays:
Assay in all cases: PRISMA enrichment of interactor (LFQ) in peptide spot vs all other peptide spots (log2 fold change); higher = stronger / more specific binding of the interactor to the peptide
ACOT7, O00154 = target: ACOT7, O00154
Method: (§1)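 PRISMA: 15-aa overlapping tiles (offset 8 aa) of 60 microproteins, plus SOS1/GLUT1 control peptides, were spot-synthesized on cellulose membranes in triplicate. Membranes were incubated with benzonase-treated HEK293T lysate, and bound proteins were identified by LC-MS/MS with LFQ. Enrichment is the log2 fold change of each protein in one spot versus all other spots. Only interactors passing the significance cutoff are listed.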

By UniProt entry, the sequences of proteins in these tests, tags left out.
MPG, P29372, UniProt P29372, whole entry: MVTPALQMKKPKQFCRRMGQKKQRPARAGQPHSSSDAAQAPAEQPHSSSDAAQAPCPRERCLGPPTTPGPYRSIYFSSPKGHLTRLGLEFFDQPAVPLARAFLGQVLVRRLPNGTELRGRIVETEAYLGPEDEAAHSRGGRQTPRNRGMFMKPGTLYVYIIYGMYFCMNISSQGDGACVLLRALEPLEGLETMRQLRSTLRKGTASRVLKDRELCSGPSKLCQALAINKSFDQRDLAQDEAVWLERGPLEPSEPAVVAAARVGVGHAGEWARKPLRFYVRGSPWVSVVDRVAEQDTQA
WDR82, Q6UXN9, UniProt Q6UXN9, whole entry: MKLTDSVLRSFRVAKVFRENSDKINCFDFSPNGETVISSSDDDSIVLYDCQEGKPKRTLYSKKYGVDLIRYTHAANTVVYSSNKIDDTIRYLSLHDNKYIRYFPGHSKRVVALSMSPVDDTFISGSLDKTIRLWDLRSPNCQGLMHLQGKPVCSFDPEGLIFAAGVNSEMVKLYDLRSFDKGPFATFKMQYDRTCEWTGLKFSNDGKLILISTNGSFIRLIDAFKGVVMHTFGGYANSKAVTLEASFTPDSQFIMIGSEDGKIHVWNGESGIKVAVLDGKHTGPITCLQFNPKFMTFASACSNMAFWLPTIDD
PHAX, Q9H814, UniProt Q9H814, whole entry: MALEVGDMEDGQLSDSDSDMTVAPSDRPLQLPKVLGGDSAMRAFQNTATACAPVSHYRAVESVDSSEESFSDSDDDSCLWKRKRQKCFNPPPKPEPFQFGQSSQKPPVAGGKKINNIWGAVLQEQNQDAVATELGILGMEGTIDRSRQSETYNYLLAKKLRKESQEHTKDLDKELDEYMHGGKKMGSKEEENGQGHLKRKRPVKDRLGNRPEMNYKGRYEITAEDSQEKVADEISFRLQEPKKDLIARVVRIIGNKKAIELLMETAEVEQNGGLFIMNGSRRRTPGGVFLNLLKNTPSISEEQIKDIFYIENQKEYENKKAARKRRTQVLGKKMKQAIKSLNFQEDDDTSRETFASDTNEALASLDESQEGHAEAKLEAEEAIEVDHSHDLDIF
SMARCC2, Q8TAQ2, UniProt Q8TAQ2, whole entry: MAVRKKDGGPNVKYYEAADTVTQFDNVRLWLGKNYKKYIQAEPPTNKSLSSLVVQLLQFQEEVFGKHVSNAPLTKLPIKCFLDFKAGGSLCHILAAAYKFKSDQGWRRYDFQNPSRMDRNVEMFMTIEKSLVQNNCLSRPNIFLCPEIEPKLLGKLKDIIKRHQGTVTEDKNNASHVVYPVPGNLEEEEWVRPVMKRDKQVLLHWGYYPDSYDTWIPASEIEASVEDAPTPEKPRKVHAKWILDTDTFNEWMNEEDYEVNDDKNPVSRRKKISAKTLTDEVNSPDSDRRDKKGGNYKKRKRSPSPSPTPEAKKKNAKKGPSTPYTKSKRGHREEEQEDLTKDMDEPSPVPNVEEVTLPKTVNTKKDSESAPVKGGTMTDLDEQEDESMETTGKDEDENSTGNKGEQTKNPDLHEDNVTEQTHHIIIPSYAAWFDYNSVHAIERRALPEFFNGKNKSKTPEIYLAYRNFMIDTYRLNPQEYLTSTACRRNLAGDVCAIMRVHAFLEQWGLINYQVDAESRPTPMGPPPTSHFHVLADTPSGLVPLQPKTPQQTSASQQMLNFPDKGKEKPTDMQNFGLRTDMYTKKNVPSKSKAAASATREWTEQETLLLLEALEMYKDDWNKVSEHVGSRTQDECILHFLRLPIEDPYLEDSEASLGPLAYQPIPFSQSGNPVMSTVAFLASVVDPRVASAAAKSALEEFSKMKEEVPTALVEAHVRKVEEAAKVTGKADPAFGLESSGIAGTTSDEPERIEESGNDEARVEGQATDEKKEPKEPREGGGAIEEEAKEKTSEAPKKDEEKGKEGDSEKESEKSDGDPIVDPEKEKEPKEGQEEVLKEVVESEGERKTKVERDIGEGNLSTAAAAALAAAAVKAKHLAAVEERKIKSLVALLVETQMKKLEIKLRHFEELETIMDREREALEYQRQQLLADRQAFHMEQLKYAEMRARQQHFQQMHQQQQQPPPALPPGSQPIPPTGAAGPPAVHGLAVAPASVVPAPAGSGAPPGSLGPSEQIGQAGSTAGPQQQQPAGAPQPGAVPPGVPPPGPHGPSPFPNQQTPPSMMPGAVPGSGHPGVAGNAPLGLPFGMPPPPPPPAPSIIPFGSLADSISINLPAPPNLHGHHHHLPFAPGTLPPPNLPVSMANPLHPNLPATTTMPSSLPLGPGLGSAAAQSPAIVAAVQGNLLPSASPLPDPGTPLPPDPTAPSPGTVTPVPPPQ
CHMP2B, Q9UQN3, UniProt Q9UQN3, whole entry: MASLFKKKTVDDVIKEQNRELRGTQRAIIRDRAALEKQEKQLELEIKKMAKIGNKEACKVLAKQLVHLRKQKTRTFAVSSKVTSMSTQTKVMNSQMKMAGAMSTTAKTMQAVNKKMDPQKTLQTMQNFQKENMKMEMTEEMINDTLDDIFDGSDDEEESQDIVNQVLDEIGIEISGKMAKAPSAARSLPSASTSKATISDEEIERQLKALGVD
DYNLRB1, Q9NP97, UniProt Q9NP97, whole entry: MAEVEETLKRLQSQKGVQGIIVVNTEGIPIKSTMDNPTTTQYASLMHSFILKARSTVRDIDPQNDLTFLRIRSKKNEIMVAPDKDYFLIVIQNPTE
ELAVL1, Q15717, UniProt Q15717, whole entry: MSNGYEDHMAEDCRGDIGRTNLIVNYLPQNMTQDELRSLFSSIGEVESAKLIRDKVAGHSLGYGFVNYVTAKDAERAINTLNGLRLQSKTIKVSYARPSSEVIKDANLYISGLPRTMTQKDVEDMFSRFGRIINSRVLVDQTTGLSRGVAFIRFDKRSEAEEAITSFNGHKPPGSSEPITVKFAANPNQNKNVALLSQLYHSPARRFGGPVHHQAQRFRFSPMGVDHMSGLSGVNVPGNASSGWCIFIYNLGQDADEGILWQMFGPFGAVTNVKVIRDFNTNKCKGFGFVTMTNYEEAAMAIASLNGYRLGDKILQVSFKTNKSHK
GTF2F2, P13984, UniProt P13984, whole entry: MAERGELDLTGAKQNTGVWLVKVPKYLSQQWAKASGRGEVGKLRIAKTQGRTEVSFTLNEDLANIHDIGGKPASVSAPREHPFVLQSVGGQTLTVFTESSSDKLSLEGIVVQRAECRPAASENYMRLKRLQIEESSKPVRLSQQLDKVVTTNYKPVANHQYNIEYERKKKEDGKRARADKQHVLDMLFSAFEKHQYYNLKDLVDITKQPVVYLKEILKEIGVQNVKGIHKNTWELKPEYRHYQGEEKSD
H2AFY2, Q9P0M6, UniProt Q9P0M6, whole entry: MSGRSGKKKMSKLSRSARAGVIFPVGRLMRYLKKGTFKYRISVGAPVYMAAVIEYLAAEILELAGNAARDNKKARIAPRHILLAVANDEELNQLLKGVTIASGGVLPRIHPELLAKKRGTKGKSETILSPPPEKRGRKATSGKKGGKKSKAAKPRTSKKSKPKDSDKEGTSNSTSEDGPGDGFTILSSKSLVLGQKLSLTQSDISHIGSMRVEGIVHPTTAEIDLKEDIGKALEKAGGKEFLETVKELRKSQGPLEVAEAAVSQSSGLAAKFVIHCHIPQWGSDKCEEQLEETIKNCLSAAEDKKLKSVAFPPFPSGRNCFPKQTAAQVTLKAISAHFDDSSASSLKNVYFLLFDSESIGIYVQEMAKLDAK
HDAC2, Q92769, UniProt Q92769, whole entry: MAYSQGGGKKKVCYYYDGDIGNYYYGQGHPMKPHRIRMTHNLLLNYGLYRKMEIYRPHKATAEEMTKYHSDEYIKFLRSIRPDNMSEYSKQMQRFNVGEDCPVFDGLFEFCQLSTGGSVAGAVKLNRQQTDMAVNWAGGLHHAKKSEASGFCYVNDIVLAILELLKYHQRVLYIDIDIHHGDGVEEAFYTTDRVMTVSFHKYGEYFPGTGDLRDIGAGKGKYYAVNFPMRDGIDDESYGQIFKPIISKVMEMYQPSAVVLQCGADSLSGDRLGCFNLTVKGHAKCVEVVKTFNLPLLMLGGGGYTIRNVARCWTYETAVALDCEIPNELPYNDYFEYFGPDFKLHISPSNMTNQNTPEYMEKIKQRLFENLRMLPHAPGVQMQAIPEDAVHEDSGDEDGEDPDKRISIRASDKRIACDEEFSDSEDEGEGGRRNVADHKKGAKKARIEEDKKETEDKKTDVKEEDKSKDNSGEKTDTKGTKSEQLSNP
NDUFA13, Q9P0J0, UniProt Q9P0J0, whole entry: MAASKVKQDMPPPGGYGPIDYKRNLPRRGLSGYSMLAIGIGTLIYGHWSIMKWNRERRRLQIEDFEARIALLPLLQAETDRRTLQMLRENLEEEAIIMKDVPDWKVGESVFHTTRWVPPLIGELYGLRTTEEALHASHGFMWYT

ACP1, P24666 = target: ACP1, P24666
Method: as §1

AKAP17A, Q02040 = target: AKAP17A, Q02040
Method: as §1

ASNS, P08243 = target: ASNS, P08243
Method: as §1

DRG2, P55039 = target: DRG2, P55039
Method: as §1

MPG, P29372 = target: MPG, P29372
Method: as §1

MRPL11, Q9Y3B7 = target: MRPL11, Q9Y3B7
Method: as §1

MRPS5, P82675 = target: MRPS5, P82675
Method: as §1

MTA2, O94776 = target: MTA2, O94776
Method: as §1

NEK7, Q8TDX7 = target: NEK7, Q8TDX7
Method: as §1

NME4, O00746 = target: NME4, O00746
Method: as §1

NPM3, O75607 = target: NPM3, O75607
Method: as §1

NSUN5, Q96P11 = target: NSUN5, Q96P11
Method: as §1

PDCL3, Q9H2J4 = target: PDCL3, Q9H2J4
Method: as §1

PRDX2, P32119 = target: PRDX2, P32119
Method: as §1

TIMM8B, Q9Y5J9 = target: TIMM8B, Q9Y5J9
Method: as §1

WDR43, Q15061 = target: WDR43, Q15061
Method: as §1

WDR82, Q6UXN9 = target: WDR82, Q6UXN9
Method: as §1

ZC3H14, Q6PJT7 = target: ZC3H14, Q6PJT7
Method: as §1

ACO2, Q99798 = target: ACO2, Q99798
Method: as §1

ATP5ME, P56385 = target: ATP5ME, P56385
Method: as §1

ATP5MG, O75964 = target: ATP5MG, O75964
Method: as §1

BZW2, Q9Y6E2 = target: BZW2, Q9Y6E2
Method: as §1

CLTA, P09496 = target: CLTA, P09496
Method: as §1

CLTB, P09497 = target: CLTB, P09497
Method: as §1

DCAF1, Q9Y4B6 = target: DCAF1, Q9Y4B6
Method: as §1

FOCAD, Q5VW36 = target: FOCAD, Q5VW36
Method: as §1

GIGYF2, Q6Y7W6 = target: GIGYF2, Q6Y7W6
Method: as §1

HNRNPR, O43390 = target: HNRNPR, O43390
Method: as §1

IVD, P26440 = target: IVD, P26440
Method: as §1

NCAPD3, P42695 = target: NCAPD3, P42695
Method: as §1

PHAX, Q9H814 = target: PHAX, Q9H814
Method: as §1

SMARCC2, Q8TAQ2 = target: SMARCC2, Q8TAQ2
Method: as §1

SUGP2, Q8IX01 = target: SUGP2, Q8IX01
Method: as §1

UBA1, P22314 = target: UBA1, P22314
Method: as §1

WTAP, Q15007 = target: WTAP, Q15007
Method: as §1

DDX49, Q9Y6V7 = target: DDX49, Q9Y6V7
Method: as §1

DNAJA3, Q96EY1 = target: DNAJA3, Q96EY1
Method: as §1

FBXO45, P0C2W1 = target: FBXO45, P0C2W1
Method: as §1

HOMER2, Q9NSB8 = target: HOMER2, Q9NSB8
Method: as §1

MARK2, Q7KZI7 = target: MARK2, Q7KZI7
Method: as §1

ZC3H15, Q8WU90 = target: ZC3H15, Q8WU90
Method: as §1

ACOT13, Q9NPJ3 = target: ACOT13, Q9NPJ3
Method: as §1

PHGDH, O43175 = target: PHGDH, O43175
Method: as §1

STAG2, Q8N3U4 = target: STAG2, Q8N3U4
Method: as §1

UMPS, P11172 = target: UMPS, P11172
Method: as §1

ACLY, P53396 = target: ACLY, P53396
Method: as §1

CDK2, P24941 = target: CDK2, P24941
Method: as §1

CHMP2B, Q9UQN3 = target: CHMP2B, Q9UQN3
Method: as §1

DUSP11, O75319 = target: DUSP11, O75319
Method: as §1

DYNLRB1, Q9NP97 = target: DYNLRB1, Q9NP97
Method: as §1

ELAVL1, Q15717 = target: ELAVL1, Q15717
Method: as §1

FAM107B, Q9H098 = target: FAM107B, Q9H098
Method: as §1

HLTF, Q14527 = target: HLTF, Q14527
Method: as §1

MACF1 = target: MACF1
Method: as §1

NOL9, Q5SY16 = target: NOL9, Q5SY16
Method: as §1

NUP160, Q12769 = target: NUP160, Q12769
Method: as §1

RAB11A, P62491 = target: RAB11A, P62491
Method: as §1

[1] = substrate: SSB, P05455
Method: as §1

TOMM5, Q8N4H5 = target: TOMM5, Q8N4H5
Method: as §1

ASMTL, O95671 = target: ASMTL, O95671
Method: as §1

CCT7, Q99832 = target: CCT7, Q99832
Method: as §1

COPB1, P53618 = target: COPB1, P53618
Method: as §1

GNL3L, Q9NVN8 = target: GNL3L, Q9NVN8
Method: as §1

GTF2F2, P13984 = target: GTF2F2, P13984
Method: as §1

H2AFY2, Q9P0M6 = target: H2AFY2, Q9P0M6
Method: as §1

HDAC2, Q92769 = target: HDAC2, Q92769
Method: as §1

HSD17B11, Q8NBQ5 = target: HSD17B11, Q8NBQ5
Method: as §1

MRPS15, P82914 = target: MRPS15, P82914
Method: as §1

MYCBP2, O75592 = target: MYCBP2, O75592
Method: as §1

NDUFA13, Q9P0J0 = target: NDUFA13, Q9P0J0
Method: as §1

NRDE2, Q9H7Z3 = target: NRDE2, Q9H7Z3
Method: as §1

PDIA4, P13667 = target: PDIA4, P13667
Method: as §1

PSMB2, P49721 = target: PSMB2, P49721
Method: as §1

DDX51, Q8N8A6 = target: DDX51, Q8N8A6
Method: as §1

MAP1B, P46821 = target: MAP1B, P46821
Method: as §1

MRPL19, P49406 = target: MRPL19, P49406
Method: as §1

## EKGLVFLNGKLGRII [MIEF-MP]
ACOT7, O00154
  PRISMA enrichment of interactor (log2): 4.07
ACP1, P24666
  PRISMA enrichment of interactor (log2): 6.44
AKAP17A, Q02040
  PRISMA enrichment of interactor (log2): 4.26
ASNS, P08243
  PRISMA enrichment of interactor (log2): 4.98
DRG2, P55039
  PRISMA enrichment of interactor (log2): 3.98
MPG, P29372
  PRISMA enrichment of interactor (log2): 4.47
MRPL11, Q9Y3B7
  PRISMA enrichment of interactor (log2): 8.66
MRPS5, P82675
  PRISMA enrichment of interactor (log2): 6.21
MTA2, O94776
  PRISMA enrichment of interactor (log2): 5.71
NEK7, Q8TDX7
  PRISMA enrichment of interactor (log2): 7.51
NME4, O00746
  PRISMA enrichment of interactor (log2): 5.66
NPM3, O75607
  PRISMA enrichment of interactor (log2): 3.75
NSUN5, Q96P11
  PRISMA enrichment of interactor (log2): 5.07
PDCL3, Q9H2J4
  PRISMA enrichment of interactor (log2): 7.99
PRDX2, P32119
  PRISMA enrichment of interactor (log2): 7
TIMM8B, Q9Y5J9
  PRISMA enrichment of interactor (log2): 4.62
WDR43, Q15061
  PRISMA enrichment of interactor (log2): 4.26
WDR82, Q6UXN9
  PRISMA enrichment of interactor (log2): 8.22
ZC3H14, Q6PJT7
  PRISMA enrichment of interactor (log2): 4.73

## LLLDDPGHRPASTYP [LINC01128]
ACO2, Q99798
  PRISMA enrichment of interactor (log2): 4.54
ATP5ME, P56385
  PRISMA enrichment of interactor (log2): 5.26
ATP5MG, O75964
  PRISMA enrichment of interactor (log2): 5.35
BZW2, Q9Y6E2
  PRISMA enrichment of interactor (log2): 4.81
CLTA, P09496
  PRISMA enrichment of interactor (log2): 5.86
CLTB, P09497
  PRISMA enrichment of interactor (log2): 5.1
DCAF1, Q9Y4B6
  PRISMA enrichment of interactor (log2): 6.12
FOCAD, Q5VW36
  PRISMA enrichment of interactor (log2): 3.93
GIGYF2, Q6Y7W6
  PRISMA enrichment of interactor (log2): 5.25
HNRNPR, O43390
  PRISMA enrichment of interactor (log2): 4.85
IVD, P26440
  PRISMA enrichment of interactor (log2): 7.14
NCAPD3, P42695
  PRISMA enrichment of interactor (log2): 3.99
PHAX, Q9H814
  PRISMA enrichment of interactor (log2): 4.78
SMARCC2, Q8TAQ2
  PRISMA enrichment of interactor (log2): 5.33
SUGP2, Q8IX01
  PRISMA enrichment of interactor (log2): 5.03
UBA1, P22314
  PRISMA enrichment of interactor (log2): 5.27
WTAP, Q15007
  PRISMA enrichment of interactor (log2): 4.31

## MCRGIQTLENVPPEF [JHDM1D-AS1]
ACOT7, O00154
  PRISMA enrichment of interactor (log2): 5.31
DDX49, Q9Y6V7
  PRISMA enrichment of interactor (log2): 5.86
DNAJA3, Q96EY1
  PRISMA enrichment of interactor (log2): 5.19
FBXO45, P0C2W1
  PRISMA enrichment of interactor (log2): 4.49
HOMER2, Q9NSB8
  PRISMA enrichment of interactor (log2): 4.17
MARK2, Q7KZI7
  PRISMA enrichment of interactor (log2): 8.59
ZC3H15, Q8WU90
  PRISMA enrichment of interactor (log2): 5.19

## PFSGNIFLVTMKGQY [BANCR]
ACOT13, Q9NPJ3
  PRISMA enrichment of interactor (log2): 4.21
PHGDH, O43175
  PRISMA enrichment of interactor (log2): 3.27
STAG2, Q8N3U4
  PRISMA enrichment of interactor (log2): 5.99
UMPS, P11172
  PRISMA enrichment of interactor (log2): 4.93

## EEAKEKKDLLKMCTS [PRR34-AS1]
ACLY, P53396
  PRISMA enrichment of interactor (log2): 6.46
ATP5ME, P56385
  PRISMA enrichment of interactor (log2): 5.16
CDK2, P24941
  PRISMA enrichment of interactor (log2): 4.38
CHMP2B, Q9UQN3
  PRISMA enrichment of interactor (log2): 5.52
DUSP11, O75319
  PRISMA enrichment of interactor (log2): 4.75
DYNLRB1, Q9NP97
  PRISMA enrichment of interactor (log2): 4.61
ELAVL1, Q15717
  PRISMA enrichment of interactor (log2): 4.99
FAM107B, Q9H098
  PRISMA enrichment of interactor (log2): 4.57
HLTF, Q14527
  PRISMA enrichment of interactor (log2): 5.3
MACF1
  PRISMA enrichment of interactor (log2): 5.17
NOL9, Q5SY16
  PRISMA enrichment of interactor (log2): 5.37
NUP160, Q12769
  PRISMA enrichment of interactor (log2): 4.57
RAB11A, P62491
  PRISMA enrichment of interactor (log2): 8.32
[1]
  PRISMA enrichment of interactor (log2): 5.91
TOMM5, Q8N4H5
  PRISMA enrichment of interactor (log2): 5.47

## ERRAMGILTTSVRKK [RP11-12K22.1]
ACOT7, O00154
  PRISMA enrichment of interactor (log2): 4.12
ASMTL, O95671
  PRISMA enrichment of interactor (log2): 5.01
CCT7, Q99832
  PRISMA enrichment of interactor (log2): 5.61
COPB1, P53618
  PRISMA enrichment of interactor (log2): 5.33
GNL3L, Q9NVN8
  PRISMA enrichment of interactor (log2): 7.01
GTF2F2, P13984
  PRISMA enrichment of interactor (log2): 5.81
H2AFY2, Q9P0M6
  PRISMA enrichment of interactor (log2): 4.08
HDAC2, Q92769
  PRISMA enrichment of interactor (log2): 4.1
HLTF, Q14527
  PRISMA enrichment of interactor (log2): 7.12
HSD17B11, Q8NBQ5
  PRISMA enrichment of interactor (log2): 4.13
MRPS15, P82914
  PRISMA enrichment of interactor (log2): 5.02
MYCBP2, O75592
  PRISMA enrichment of interactor (log2): 4.41
NDUFA13, Q9P0J0
  PRISMA enrichment of interactor (log2): 4.86
NRDE2, Q9H7Z3
  PRISMA enrichment of interactor (log2): 3.65
PDIA4, P13667
  PRISMA enrichment of interactor (log2): 5.18
PSMB2, P49721
  PRISMA enrichment of interactor (log2): 6.78

## WRWLWLGRKRNHPAR [RP11-464C19.3]
ACOT13, Q9NPJ3
  PRISMA enrichment of interactor (log2): 4.64
DDX51, Q8N8A6
  PRISMA enrichment of interactor (log2): 4.55
MAP1B, P46821
  PRISMA enrichment of interactor (log2): 4.29
MRPL19, P49406
  PRISMA enrichment of interactor (log2): 6.6

From the supplement of paper PMC10032668
